PubChem BioAssay AID2685 (National Center for Advancing Translational Sciences (NCATS), 2010)
The other results are listed elsewhere or left out. The main result of the screen is listed elsewhere. These columns were measured beside it and carry no call. Most of these compounds were active or inconclusive in the main read-out, so they are no random draw. The note in brackets gives the kind of curve behind each potency; many fits are weak.

Assay: qHTS Assay for Lipid Storage Modulators in Drosophila S3 Cells;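 for cell number change: cells counted by Cell Tracker Red CMTPX staining in the red channel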
Settings: BODIPY lipid droplet fluorescence, 18-24 h; for cell number change: measured here: cell count max response, cells fed with added oleic acid
Method in brief: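 Laser-scanning cytometry quantifies lipid droplet accumulation (500–530 nm total intensity; droplet/cell object ratio) in oleic acid-fed (400 uM added) Drosophila S3 cells treated with a concentration series. 20 uM Triacsin C defined 100% inhibition.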

[1] = measured here: cell number channel AC50, cells fed with added oleic acid
[2] = measured here: lipid fluorescence (Fed channel) AC50, cells fed with added oleic acid

Row | SMILES | cell number change | AC50 [1] | AC50 [2]
1 | CCN(CC)c1ccc(NC(=O)c2c(C)noc2C)cc1 | 31.8% | 517 nM [rising, partial curve, poor fit] | 820 nM [rising, full curve, poor fit]
2 | Cc1nn(CC(=O)Nc2cccc(S(N)(=O)=O)c2)c(C)c1[N+](=O)[O-] | -18.1% | 7310 nM [falling, single point] | 
3 | COc1cccc(C(=O)NC(=S)Nc2ccccc2N2CCOCC2)c1 | -23.8% |  | 2060 nM [falling, full curve, poor fit]
4 | Cc1cc(C)c2nc(NNC(=O)c3cc(=O)c4ccccc4o3)sc2c1 | 0.393% |  | 
5 | COc1ccc(N(C(=O)c2snc(C(N)=O)c2N)C(C(=O)NC2CCCC2)c2cc(OC)ccc2OC)cc1 (centres undefined) | 7.5% |  | 580 nM [rising, single point]
6 | Cc1ccc(CN(C)C(=O)COc2ccc(S(=O)(=O)N3CCCC3)cc2[N+](=O)[O-])c(C)c1 | -3.82% | 164 nM [falling, full curve, poor fit] | 164 nM [falling, full curve, poor fit]
7 | CCOc1cc(/C=N/NC(=O)CCc2n[nH]c(=O)[nH]c2=O)ccc1O | 32.8% | 164 nM [rising, partial curve, poor fit] | 29100 nM [rising, single point]
8 | CCOc1ccccc1OCCOCCN1CCN(Cc2ccccc2)CC1 | -33.6% | 18400 nM [falling, single point] | 
9 | COc1ccc(C(=O)Nc2cc(C)nn2-c2nc3ccccc3[nH]2)c(OC)c1 | -24.3% |  | 580 nM [rising, full curve, poor fit]
10 | O=C(NCCc1ccc(F)cc1)Nc1ccccc1Cl | 6.94% |  | 6510 nM [rising, partial curve, poor fit]
11 | O=C(Cn1cc2c(n1)CCCC2)NCc1ccccn1 | -50.6% | 25900 nM [falling, single point] | 9200 nM [falling, partial curve]
12 | CCCCNC(=O)c1nn2c(C(F)(F)F)cc(-c3ccc(OC)cc3)nc2c1Br | -15.1% |  | 
13 | CCC(C(=O)NCc1ccc(F)cc1)n1nc(C)n2c(cc3occc32)c1=O (centres undefined) | 4.2% |  | 29100 nM [rising, single point]
14 | CCOc1ncccc1C(=O)N(C)CC1COc2ccccc2O1 (centres undefined) | 34.3% | 820 nM [rising, partial curve, poor fit] | 
15 | Cc1ccccc1CN1CCNC(=O)C1CC(=O)NCCC1=CCCCC1 (centres undefined) | 12.3% | 7310 nM [rising, partial curve, poor fit] | 
16 | Cc1ccc(CN2CCSc3ccc(C(=O)NCc4cccnc4)cc32)cc1 | -28.3% |  | 14600 nM [falling, single point]
17 | O=C(Nc1ccc(F)cc1F)N1CCCN(CCOc2ccccc2)CC1 | 22.6% | 3660 nM [rising, single point] | 29100 nM [rising, single point]
18 | N#Cc1c(-c2ccc3c(c2)OCO3)csc1N |  | 1840 nM [rising, partial curve] | 2310 nM [rising, partial curve]
19 | O=C(OCc1ccc(Br)cc1)c1cccnc1Cl | 14.1% |  | 

Exported with tabs: two of the compounds above
Row	SMILES	cell number change	AC50 [1]	AC50 [2]
5	COc1ccc(N(C(=O)c2snc(C(N)=O)c2N)C(C(=O)NC2CCCC2)c2cc(OC)ccc2OC)cc1 (centres undefined)	7.5%		580 nM [rising, single point]
6	Cc1ccc(CN(C)C(=O)COc2ccc(S(=O)(=O)N3CCCC3)cc2[N+](=O)[O-])c(C)c1	-3.82%	164 nM [falling, full curve, poor fit]	164 nM [falling, full curve, poor fit]

(next part)

Row | SMILES | cell number change | AC50 [1] | AC50 [2]
20 | CCC(CC)C(=O)Nc1cccc(-c2ccc3nncn3n2)c1 | -10.1% |  | 
21 | Cc1ccc(-c2nnc(SCc3nc(N)nc(Nc4ccccc4C)n3)n2N)cc1 | 34.5% | 920 nM [rising, full curve, poor fit] | 
22 | COCCn1c(SCc2nc(N)nc(Nc3ccccc3C)n2)nc2ccccc2c1=O | 5.94% |  | 
23 | COC(=O)CNC(=O)c1ccc(NS(=O)(=O)c2cc([N+](=O)[O-])ccc2Cl)cc1 |  |  | 32600 nM [falling, single point]
24 | C=CCn1c(O)c(N=NC(=O)CNC(=O)c2ccncc2)c2ccccc21 | -3.28% |  | 580 nM [rising, single point]
25 | CC(=O)c1c(C)[nH]c(C(=O)Nc2ccc(C)c(S(=O)(=O)Nc3ccc(C)cc3C)c2)c1C | 6.56% |  | 6510 nM [rising, partial curve]
26 | NS(=O)(=O)c1ccc(CCNC(=O)COC(=O)c2cc([N+](=O)[O-])ccc2N2CCOCC2)cc1 | -7.23% |  | 
27 | CC(=O)c1sc2nc(-c3cccs3)ccc2c1N | 62.8% | 366 nM [rising, full curve] | 1840 nM [rising, partial curve]
28 | CCc1ccc(/C=C2/C(=O)N(c3ccccc3)C(=S)N2CC(=O)OC)s1 | -15% |  | 32600 nM [rising, partial curve, poor fit]
29 | Cc1ccc(S(=O)(=O)NC(CC(C)C)C(=O)Nc2nccs2)cc1 (centres undefined) | 31.4% | 9200 nM [rising, partial curve] | 2310 nM [falling, partial curve]
30 | O=C(Nc1ccnn1C1CCN(C(=O)c2cccc(Cl)c2)CC1)C1CCOC1 (centres undefined) | 17% |  | 18400 nM [rising, single point]
31 | CC1CCc2nc3sc4c(c3c(N)c2C1)CCCC4 (centres undefined) | 12.3% |  | 92 nM [rising, full curve]
32 | Cc1cc(OCC(=O)NCCc2cccc(F)c2)c2c(C)cc(=O)oc2c1 | 32.8% | 32600 nM [rising, single point] | 
33 | COc1ccc(-c2nn(-c3ccccc3)cc2C2CC(c3cccs3)=NN2C(=O)CCCC(=O)O)cc1 (centres undefined) | 10.2% | 130 nM [falling, full curve, poor fit] | 580 nM [falling, single point]
34 | COc1cc(/C(C)=N/NC(=O)CSc2nncn2C)ccc1OCc1ccccc1Cl | -1.49% |  | 206 nM [rising, full curve]
35 | COc1ccc(N(CCC(=O)O)S(=O)(=O)c2ccc(C)cc2C)cc1 | -33.1% |  | 
36 | CC(C)NS(=O)(=O)c1cccc2nsnc12 | 52.3% | 29100 nM [rising, single point] | 18400 nM [rising, single point]
37 | Cc1cccc(C)c1NC(=O)c1cccc2c1C(=O)N(C1CCCCC1)C2 | 12.6% |  | 
